The list does not hold the whole screen: its compounds were picked by chemical class. Not every dose and run of a compound is shown. T/C: endpoint of the treated group in % of that of the vehicle group. Schedule codes are those of the source, taken here to give the interval after Q, in days (D) or hours (H), and the number of doses after X. Some schedules carry Z or #; the key to these is not given. Some T/C values are followed by the survivors on the day toxicity was checked; where neither a count nor a note follows, no animal had died by that day. Some doses were run more than once; the values are given in rising order. Some entries show no survivor count and are marked so; the dose need not have been tolerated. Some entries give survivors of the animals treated and no T/C: the source holds a T/C of zero for them, seemingly a mark for toxic or unscored doses. Survivors were counted at the toxicity check; its day is shown where the source gives one, and later deaths do not show.

This test concerns Swiss mice, Sarcoma 180 sc, mean tumor weight T/C. As to the kind of experiment: NCI In Vivo Anticancer Drug Screen. Data for tumor model Sarcoma 180 (subcutaneous) in Swiss mice. Particulars: T/C endpoint: mean tumor weight, higher T/C = larger tumour. The method, then: The antitumor activity of compounds was measured in mice bearing transplantable tumors. Survival or tumor size were measured and the results are expressed as the measurement made in the treated group (T) divided by the measurement made in the vehicle treated control group (C). The tumor model used in this assay is Sarcoma 180 (subcutaneous) in Swiss mice

Where [1] appears, read: dose: 250.0 mg/kg/injection, schedule: Q#A X014 (ip), vehicle: saline, evaluated on day 8.

For `O=[N+]([O-])c1ccc(Oc2ccccc2[N+](=O)[O-])c([N+](=O)[O-])c1`, the T/C was 97 % of control (dose: 74.0 mg/kg/injection, schedule: Q#A X014 (ip), vehicle: methylcellulose (MC), evaluated on day 8); 68 % of control [5 of 6 alive] (dose: 111.0 mg/kg/injection, schedule: Q#A X014 (ip), vehicle: methylcellulose (MC), evaluated on day 8); 77 % of control (dose: 166.5 mg/kg/injection, schedule: Q#A X014 (ip), vehicle: methylcellulose (MC), evaluated on day 8); 54 % of control (dose: 166.5 mg/kg/injection, schedule: Q#A X014 (ip), vehicle: saline, evaluated on day 8); 38 % of control (dose: 250.0 mg/kg/injection, schedule: Q#A X014 (ip), vehicle: methylcellulose (MC), evaluated on day 8); 47 % of control [5 of 6 alive] under setting [1]. The T/C by setting is: (dose: 375.0 mg/kg/injection, schedule: Q#A X014 (ip), vehicle: saline, evaluated on day 8) 49 % of control; (dose: 562.5 mg/kg/injection, schedule: Q#A X014 (ip), vehicle: saline, evaluated on day 8) 31 % of control [5 of 6 alive].
Regarding `CN(CCCl)/N=N/c1nc2nc(N)[nH]c(=O)c2[nH]1`, the T/C (dose: 12.0 mg/kg/injection, schedule: Q#A X014 (ip), vehicle: methylcellulose (MC), evaluated on day 8) was 111 % of control; the T/C (dose: 17.5 mg/kg/injection, schedule: Q#A X014 (ip), vehicle: methylcellulose (MC), evaluated on day 8) was 91 % of control; the T/C (dose: 25.0 mg/kg/injection, schedule: Q#A X014 (ip), vehicle: methylcellulose (MC), evaluated on day 8) was 82 % of control. In addition, the survivor count (dose: 37.5 mg/kg/injection, schedule: Q#A X014 (ip), vehicle: methylcellulose (MC)) is on record as 2 of 6.
For the compound `O=P1(N(CCCl)CCCl)OCC2CCCN21` (stereo not drawn), the T/C reads like this: (dose: 15.62 mg/kg/injection, schedule: Q#A X014 (ip), vehicle: saline, evaluated on day 8) 109 % of control; (dose: 31.25 mg/kg/injection, schedule: Q#A X014 (ip), vehicle: saline, evaluated on day 8) 65 % of control; (dose: 62.5 mg/kg/injection, schedule: Q#A X014 (ip), vehicle: saline, evaluated on day 8) 157 % of control; (dose: 125.0 mg/kg/injection, schedule: Q#A X014 (ip), vehicle: saline, evaluated on day 8) 50 % of control; under setting [1], 23 % of control.
In the case of `OC(CNCCCl)C(O)C(O)C(O)CNCCCl` (stereo not drawn), the T/C reads like this: (dose: 2.4 mg/kg/injection, schedule: Q#A X014 (ip), vehicle: carboxymethylcellulose (CMC), evaluated on day 8) 75 % of control; (dose: 4.87 mg/kg/injection, schedule: Q#A X014 (ip), vehicle: carboxymethylcellulose (CMC), evaluated on day 8) 58 % of control; (dose: 9.75 mg/kg/injection, schedule: Q#A X014 (ip), vehicle: carboxymethylcellulose (CMC), evaluated on day 8) 58 % of control; (dose: 19.5 mg/kg/injection, schedule: Q#A X014 (ip), vehicle: carboxymethylcellulose (CMC), evaluated on day 8) 49 % of control [7 of 10 alive].
As to `Cn1cc(N(CCCl)CCCl)c(=O)[nH]c1=O`, the T/C is 58 and 61 % of control (dose: 0.45 mg/kg/injection, schedule: Q#A X014 (ip), vehicle: methylcellulose (MC), evaluated on day 8); 60 and 70 % of control (dose: 0.65 mg/kg/injection, schedule: Q#A X014 (ip), vehicle: methylcellulose (MC), evaluated on day 8); 13, 52, 62 % of control [5 of 6 alive] (dose: 1.0 mg/kg/injection, schedule: Q#A X014 (ip), vehicle: methylcellulose (MC), evaluated on day 8); 7 % of control [5 of 6 alive] (dose: 1.1 mg/kg/injection, schedule: Q#A X014 (ip), vehicle: methylcellulose (MC), evaluated on day 8); 5 [4 of 6 alive], 28 [5 of 6 alive], 40 % of control (dose: 1.5 mg/kg/injection, schedule: Q#A X014 (ip), vehicle: methylcellulose (MC), evaluated on day 8); 15 % of control (dose: 1.65 mg/kg/injection, schedule: Q#A X014 (ip), vehicle: methylcellulose (MC), evaluated on day 8). Where the note is “dose: 2.5 mg/kg/injection, schedule: Q#A X014 (ip), vehicle: methylcellulose (MC)”, the survivor count is reported as 1 of 6.
Take `O=c1[nH]c(=O)c2[nH]c(/N=N\N(CCCl)CCCl)nc2[nH]1`: the T/C is 67 % of control (dose: 9.37 mg/kg/injection, schedule: Q#A X014 (ip), vehicle: saline, evaluated on day 8); 72 % of control (dose: 18.75 mg/kg/injection, schedule: Q#A X014 (ip), vehicle: saline, evaluated on day 8); 93 % of control (dose: 37.5 mg/kg/injection, schedule: Q#A X014 (ip), vehicle: saline, evaluated on day 8); 99 % of control (dose: 75.0 mg/kg/injection, schedule: Q#A X014 (ip), vehicle: saline, evaluated on day 8).
Regarding `O[C@H](CNCCCl)[C@H](O)CNCCCl`, the T/C reads like this: (dose: 3.8 mg/kg/injection, schedule: Q#A X014 (ip), vehicle: carboxymethylcellulose (CMC), evaluated on day 8) 89 % of control; (dose: 5.65 mg/kg/injection, schedule: Q#A X014 (ip), vehicle: carboxymethylcellulose (CMC), evaluated on day 8) 73 % of control; (dose: 8.5 mg/kg/injection, schedule: Q#A X014 (ip), vehicle: carboxymethylcellulose (CMC), evaluated on day 8) 48 % of control; (dose: 12.0 mg/kg/injection, schedule: Q01DX007 (ip), vehicle: carboxymethylcellulose (CMC), evaluated on day 8) 56 % of control; (dose: 12.5 mg/kg/injection, schedule: Q#A X014 (ip), vehicle: carboxymethylcellulose (CMC), evaluated on day 8) 45 % of control; (dose: 20.0 mg/kg/injection, schedule: Q01DX007 (ip), vehicle: carboxymethylcellulose (CMC), evaluated on day 8) 48 % of control [5 of 6 alive].
Regarding `O=[N+]([O-])c1cc([N+](=O)[O-])c(C(F)(F)F)c([N+](=O)[O-])c1O`, the T/C runs as follows: (dose: 25.0 mg/kg/injection, schedule: Q01DX007 (ip), vehicle: saline, evaluation day not shown) 146 % of control [survivor count not shown]; (dose: 50.0 mg/kg/injection, schedule: Q01DX007 (ip), vehicle: saline, evaluation day not shown) 101 % of control [survivor count not shown].
For the compound `NC(Cc1ccc(N(CCCl)CCCl)c(Cl)c1)C(=O)O` (stereo not drawn), the T/C by setting is: (dose: 0.31 mg/kg/injection, schedule: Q#A X014 (ip), vehicle: methylcellulose (MC), evaluated on day 8) 113 % of control; (dose: 0.62 mg/kg/injection, schedule: Q#A X014 (ip), vehicle: methylcellulose (MC), evaluated on day 8) 86 % of control; (dose: 1.25 mg/kg/injection, schedule: Q#A X014 (ip), vehicle: methylcellulose (MC), evaluated on day 8) 45 % of control [5 of 6 alive]; (dose: 2.2 mg/kg/injection, schedule: Q#A X014 (ip), vehicle: methylcellulose (MC), evaluated on day 8) 34 % of control [5 of 6 alive]; (dose: 2.2 mg/kg/injection, schedule: Q#A X014 (ip), vehicle: saline, evaluated on day 8) 59 % of control; (dose: 3.5 mg/kg/injection, schedule: Q#A X014 (ip), vehicle: saline, evaluated on day 8) 37 % of control. Besides, the T/C (dose: 5.0 mg/kg/injection, schedule: Q#A X014 (ip), vehicle: saline, evaluated on day 8) was 22 % of control and the T/C (dose: 7.5 mg/kg/injection, schedule: Q#A X014 (ip), vehicle: saline, evaluated on day 8) is 3 % of control [5 of 6 alive].

Values taken from PubChem BioAssay AID342 (DTP/NCI, 2004).
